Laboratory results taken from the supplement of paper PMC12823440, “Inhibitors supercharge kinase turnover through native proteolytic circuits” (Nature, 2025).
Structures can show the parent of a compound that is named as a salt. This is one part of the list. The calls rarely recur for the same compound in another form.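 Kinases were expressed as nanoluciferase fusions in K562 cells and luminescence was read every 4 h between 2 and 18 h as percent of control, DMSO set to 100% and a positive control to 0%. A time point counts as decreased when the signal drops significantly (2 sigma). The hit call is the authors' own, does not follow from the count of time points alone, and its rule is not shown.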

By UniProt entry, the sequences of proteins in these tests, tags left out. Where a name states a change or a piece, a line headed by the entry shows the natural chain unless it says otherwise.
UniProt Q92630: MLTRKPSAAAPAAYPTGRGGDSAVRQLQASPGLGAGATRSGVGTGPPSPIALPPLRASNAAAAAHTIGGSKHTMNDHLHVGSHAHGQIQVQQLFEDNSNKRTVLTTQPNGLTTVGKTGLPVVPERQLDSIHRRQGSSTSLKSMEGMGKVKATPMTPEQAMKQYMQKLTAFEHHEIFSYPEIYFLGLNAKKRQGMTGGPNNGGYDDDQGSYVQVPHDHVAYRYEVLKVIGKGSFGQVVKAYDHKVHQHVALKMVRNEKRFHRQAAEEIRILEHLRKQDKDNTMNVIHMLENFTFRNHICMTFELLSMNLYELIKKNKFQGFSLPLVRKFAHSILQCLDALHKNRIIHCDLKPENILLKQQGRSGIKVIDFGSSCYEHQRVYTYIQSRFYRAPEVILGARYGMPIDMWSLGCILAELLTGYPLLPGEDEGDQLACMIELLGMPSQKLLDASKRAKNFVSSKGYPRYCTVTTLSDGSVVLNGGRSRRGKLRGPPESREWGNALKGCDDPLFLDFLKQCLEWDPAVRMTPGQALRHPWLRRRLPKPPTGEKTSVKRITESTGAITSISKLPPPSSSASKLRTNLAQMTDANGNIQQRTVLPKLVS

molecular target: DYRK2 (UniProt Q92630); experiment: number of time points (of 5) at which kinase-Nluc abundance scored as decreased, DMSO-normalised (count); higher = more persistent destabilization; settings: K562; 2-18 h

| Compound | number of time points |
| --- | --- |
| Cn1cnc2c(F)c(Nc3ccc(Br)cc3Cl)c(C(=O)NOCCO)cc21 [Selumetinib (sulfate)] (10 µM) | 0 |
| COc1ncc(Cl)cc1S(=O)(=O)Nc1ccc(F)c(C#Cc2cnc(N)nc2)c1F (2.5 µM) | 0 |
| CNC(=O)c1cc(COc2nnc(Nc3ccc(Cl)cc3)c3ccoc23)ccn1 [Telatinib] (10 µM) | 0 |
| CC(C)(C)c1cc(O)ccc1O (10 µM) | 0 |
| Cn1cnc2c(F)c(Nc3ccc(Br)cc3Cl)c(C(=O)NOCCO)cc21 [Selumetinib] (10 µM) | 0 |
| Cc1c(-c2c(F)cc(C(N)=O)c3[nH]c4c(c23)CC[C@H](C(C)(C)O)C4)cccc1-n1c(=O)c2cccc(F)c2n(C)c1=O (2.5 µM) | 0 |
| O=C(CSC1=NCCN1)NC1CCCCCC1 [ICCB-19 (hydrochloride)] (2.5 µM) | 0 |
| Cn1cc(-c2ccc3nnc(Sc4ccc5ncccc5c4)n3n2)cn1 (10 µM) | 0 |
| Cc1ccccc1-c1c2nccc(-c3ccc(F)cc3F)c2cc[n+]1[O-] (10 µM) | 0 |
| Cn1nccc1Nc1nccc(-c2ccn([C@H](CO)c3ccc(Cl)c(F)c3)c(=O)c2)n1 [Ravoxertinib hydrochloride] (10 µM) | 0 |
| OCCn1cc(-c2ccc3c(c2)CC/C3=N\O)c(-c2ccncc2)n1 (10 µM) | 0 |
| Cc1[nH]c(/C=C2\C(=O)Nc3ccccc32)c(C)c1CCC(=O)O [Orantinib] (10 µM) | 0 |
| NC(=O)c1nnc(N[C@@H]2CCCC[C@@H]2N)nc1Nc1cccc2cc[nH]c12 (10 µM) | 2 |
| O=C(NOCC(O)CO)c1cc(Br)c(F)c(F)c1Nc1ccc(I)cc1F (configuration not stated) (2.5 µM) | 0 |
| CN(C)CCSSCCNC(=O)C1CCN(C(=O)CSc2ccc(Cl)cc2)CC1 (10 µM) | 0 |
| CCC(C)N1c2ccccc2C(=O)N(C)c2cnc(Nc3ccc(C(=O)N4CCC(N5CCN(C)CC5)CC4)cc3OC)nc21 (configuration not stated) (2.5 µM) | 0 |

| Compound | number of time points |
| --- | --- |
| CN(C)CCCOc1ccc(-c2ccc3ncc4c(c3c2)n(C2CCOCC2)c(=O)n4C)cn1 (2 µM) | 0 |
| COc1ccc(-c2ccc3c(N4CCOCC4)nc(N4C[C@@H](C)O[C@@H](C)C4)nc3n2)cc1CO (2.5 µM) | 0 |
| CC#CC(=O)N1CC[C@@H](n2c(=O)n(-c3ccc(Oc4ccccc4)cc3)c3c(N)ncnc32)C1 [Tirabrutinib (hydrochloride)] (10 µM) | 0 |
| NC(=O)c1ccc(-c2nc(-c3ccc4c(c3)OCCO4)c(-c3ccccn3)[nH]2)cc1 (10 µM) | 0 |
| FC(F)(F)c1ccc(CNc2ccc(Cc3c[nH]c4ncccc34)cn2)cc1 (10 µM) | 0 |
| COc1ccc(Cl)c(Nc2nc3ccccc3nc2NS(=O)(=O)c2cccc(NC(=O)C(C)(C)N)c2)c1 [Pilaralisib] (10 µM) | 0 |
| Oc1ccc(Nc2nc(-c3ccc(Cl)cc3)cs2)cc1 (10 µM) | 0 |
| Cc1nc(-c2cn3c(n2)-c2ccc(-c4cnn(C(C)(C)C(N)=O)c4)cc2OCC3)n(C(C)C)n1 [Taselisib] (10 µM) | 0 |
| COc1cccc(OC)c1C(=O)OCc1cc(O)ccc1O[C@@H]1O[C@H](CO)[C@@H](O)[C@H](O)[C@H]1O [Curculigoside] (10 µM) | 0 |
| C[C@@H]1CCN(C(=O)CC#N)C[C@@H]1N(C)c1ncnc2[nH]ccc12 [Tofacitinib (citrate)] (10 µM) | 0 |
| CCc1cc2c(cc1N1CCC(N3CCOCC3)CC1)C(C)(C)c1[nH]c3cc(C#N)ccc3c1C2=O [Alectinib] (10 µM) | 0 |
| O=C(O)CCC(=O)Nc1ccc(Br)cn1 [Bikinin] (10 µM) | 0 |
| COc1cc(Nc2ncc(F)c(Nc3ccc4c(n3)N(COP(=O)(O)O)C(=O)C(C)(C)O4)n2)cc(OC)c1OC [Fostamatinib (disodium hexahydrate)] (10 µM) | 0 |
| C[C@@H]1CCN(C(=O)CC#N)C[C@@H]1N(C)c1ncnc2[nH]ccc12 [Tofacitinib] (10 µM) | 0 |
| Nc1cc(C(F)(F)F)c(-c2cc(N3CCOCC3)nc(N3CCOCC3)n2)cn1 [Buparlisib (Hydrochloride)] (2.5 µM) | 0 |
| O=C(NCCN1CCCC1)c1cc(-c2ccc(CN3CCOCC3)cc2)nc2ccc(F)cc12 (10 µM) | 0 |

An excerpt of the results above, for reference:

| Compound | number of time points |
| --- | --- |
| O=C(O)CCC(=O)Nc1ccc(Br)cn1 [Bikinin] (10 µM) | 0 |
| COc1cc(Nc2ncc(F)c(Nc3ccc4c(n3)N(COP(=O)(O)O)C(=O)C(C)(C)O4)n2)cc(OC)c1OC [Fostamatinib (disodium hexahydrate)] (10 µM) | 0 |
